We go through 61 molecules from PubChem BioAssay AID493014 (National Center for Advancing Translational Sciences (NCATS), 2011).

This experiment can be described thus: qHTS Assay to Find Inhibitors of Chronic Active B-Cell Receptor Signaling. The note with it: ABC-DLBCL IkBa-CBG/CBR reporter, luminescence ratio (green luciferase fused to IkBa over red control in TMD8 lymphoma cells), 4 h. A digest of the protocol:
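TMD8 human ABC-DLBCL cells with doxycycline-inducible IκBα–green luciferase fusion and unfused red luciferase, in 0.5% FBS medium; compounds up to 46 uM, 4 h at 37C. Green/red luminescence ratio, filter-overlap corrected, fitted to concentration-response curves.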
Background: qHTS replaces the single test concentration by a dilution series.

Where [1] appears, read: measured here: CBR red luminescence, cell number.
[2] abbreviates: measured here: IkBa-CBG green luminescence.

Several values for one entry are separate records, joined by “and”; a condition that tells them apart may be missing. Equal values may be shown once. The list shows a part of the results. These are further read-outs of the screen, such as a control signal, another cell line or another target. No call is given for them. Compounds called inactive in the main read-out are mostly missing here. Words in brackets tell the shape of the fitted curve; partial curves, single points and poor fits give uncertain potencies.

With `CCOc1ccc(NS(=O)(=O)c2ccc3c(c2)n(C)c(=O)n3C)cc1`, the AC50 (as a rule, the concentration at which the activity in the assay is half-maximal) under setting [1] is 15.8 µM [rising, single point].

`CCC(Oc1ccccc1)C(=O)N1CCN(C(=O)C(CC)Oc2ccccc2)CC1` (stereo unspecified): under setting [1], the AC50 is 4.11 µM [rising, single point].

For the molecule `CC(C)CCSc1nc2ccccc2[nH]1`, the AC50 under setting [1] was 1.41 µM [rising, partial curve, poor fit].

Consider `Cc1ccc(Nc2nc(N)nc(CN3CCN(Cc4ccc5c(c4)OCO5)CC3)n2)cc1Cl`, for which, under setting [1], the AC50 was 35.5 µM [falling, single point].

Consider `Cc1sc(NC(=O)COc2cccc(-n3cnnn3)c2)c(C#N)c1C`, for which, under setting [1], the AC50 is 12.6 µM [rising, partial curve, poor fit].

For the molecule `COc1ccc(C(=O)CCN2CCN(c3ccccc3OC)CC2)cc1`, the AC50 is 25.1 µM [falling, single point] under setting [1] and 35.5 µM [rising, partial curve, poor fit] under setting [2].

Turning to `COc1ccc(S(=O)(=O)N2CCCCC2)cc1NS(=O)(=O)c1cc(Cl)ccc1Cl`, the AC50 by setting is: under setting [1], 7.31 µM [rising, partial curve]; under setting [2], 29.1 µM [falling, partial curve, poor fit].

Take `CCn1c(SCc2cc(=O)[nH]c3ccccc23)nnc1C1CC1`: the AC50 under setting [1] is 23.1 µM [falling, partial curve].

Take `COc1cc(/C=C/C(=O)OCC(=O)Nc2cc(S(=O)(=O)N3CCCCC3)ccc2C)ccc1O`: under setting [1], the AC50 was 18.4 µM [falling, single point].

`CCOc1ccccc1-n1nnnc1SCC(=O)Nc1cc(C)on1`: the AC50 under setting [1] was 6.31 µM [rising, single point].

With `CC1=CC(=C2C(=O)c3ccccc3C2=O)C=C(C)N1C`, the AC50 under setting [1] is 35.5 µM [falling, single point].

Regarding `Cc1cccc(-n2c(-c3cccc([N+](=O)[O-])c3)nc3nc4ccccc4nc32)c1`, the AC50 under setting [1] was 0.651 µM [rising, full curve, poor fit].

For `CCn1c(SCC(N)=O)nnc1-c1cc2c(C)nn(-c3ccccc3)c2s1`, the AC50 under setting [1] was 12.6 µM [falling, partial curve].

`Cc1cccc(Nc2nnc(SCC(=O)c3ccc(Br)s3)s2)c1C`: the AC50 under setting [1] was 23.1 µM [falling, partial curve].

Take `Cc1cccc(N/N=C/c2ccncc2)c1`: the AC50 under setting [1] is 3.55 µM [rising, single point].

As for `CCOP(=O)(OCC)c1ccc2c(c1)C(=O)c1ccccc1CC2`, under setting [1], the AC50 was 20.6 µM [rising, single point].

Consider `O=C1/C(=C\c2ccc(O)c(O)c2)C(c2ccccc2)=NN1c1ccccc1`, for which, under setting [1], the AC50 was 12.6 µM [rising, partial curve, poor fit].

As for `Cn1cc(/C=N/n2cnc3scc(-c4ccc(Cl)cc4)c3c2=O)c2ccccc21`, under setting [2], the AC50 was 2.51 µM [falling, full curve, poor fit].

With `CCCCN1C(=O)/C(=C(/C#N)C(N)=O)c2ccccc21`, the AC50 is 23.1 µM [rising, single point] under setting [1] and 29.1 µM [falling, single point] under setting [2].

With `O=C(COc1cccnc1[N+](=O)[O-])Nc1cccc(S(=O)(=O)N2CCOCC2)c1`, the AC50 under setting [1] is 11.2 µM [falling, partial curve, poor fit].

Consider `CCOc1ccccc1Nc1sc(C(=O)c2ccccc2)c(N)c1C(=O)Nc1ccccc1`, for which the AC50 under setting [1] was 15.8 µM [falling, partial curve, poor fit].

In the case of `COc1ccc(S(=O)(=O)N2CCN(C(=O)c3cnc(C)cn3)CC2)cc1`, under setting [1], the AC50 was 0.58 µM [falling, partial curve, poor fit].

For the molecule `COc1cc(/C=C2\CC/C(=C\c3cc(OC)c(O)c(OC)c3)C2=O)cc(OC)c1O`, the AC50 was 18.4 µM [falling, partial curve] under setting [1] and 5.8 µM [rising, full curve] under setting [2].

With `COC(=O)C1=CN(Cc2ccc(OC)c(OC)c2)C=C(C(=O)OC)C1c1cccc(OC)c1OC`, the AC50 under setting [1] is 20 µM [rising, partial curve, poor fit].

As to `CCn1c(=O)c2cc(S(=O)(=O)NC3CCCCC3)ccc2n(CC)c1=O`, the AC50 under setting [1] was 0.184 µM [falling, full curve, poor fit].

On to `CC(NCc1ccccc1Cl)C(=O)Nc1ccc(S(=O)(=O)N2CCCC2)cc1` (stereo unspecified), for which the AC50 under setting [1] was 2.31 µM [rising, partial curve, poor fit].

Turning to `COc1cc(/C=N/NC(=O)C2C3CCCCC32C)cc(Br)c1O` (stereo unspecified), under setting [2], the AC50 is 25.9 µM [falling, partial curve, poor fit].

As to `C#CCOC(=O)c1ccccc1C(=O)n1nnc2ccccc21`, the AC50 under setting [1] was 15.8 µM [falling, single point].

Take `CCCCNc1c(-c2ccc(OC)c(SC3CCCCC3)c2)nc2cc(C)ccn12`: the AC50 under setting [1] is 18.4 µM [falling, single point] and the AC50 under setting [2] was 32.6 µM [rising, partial curve, poor fit].

`CN(C1CCCC1)C1CCN(C(=O)CNC(=O)/C=C/c2ccc(F)cc2)CC1`: the AC50 under setting [1] is 0.92 µM [falling, full curve, poor fit].

Turning to `CC(=O)N1CCN(c2ccc(NC(=O)c3ccccc3C)cc2)CC1`, the AC50 under setting [1] is 11.2 µM [falling, partial curve, poor fit].

With `Cc1nnc(-n2ncc(C#N)c2N)c2nn(-c3cccc(Cl)c3)c(C)c12`, under setting [1], the AC50 was 18.4 µM [rising, single point].

`CCCCOP(=O)(OCCCC)C(O)c1ccc(N(C)C)cc1` (stereo unspecified): the AC50 under setting [1] was 35.5 µM [rising, single point].

Consider `CCC(=O)Nc1ccc(C(=O)NNC(=O)c2ccc(C)cc2)cc1`, for which the AC50 under setting [1] is 15.8 µM [rising, partial curve, poor fit].

For the molecule `OC(CN=c1sc2ccccc2n1CC(O)COc1ccccc1)COc1ccccc1` (stereo unspecified), under setting [1], the AC50 was 20.6 µM [falling, partial curve].

Consider `O=C(NCc1ccco1)Nc1ccc2snnc2c1`, for which the AC50 under setting [1] was 35.5 µM [falling, single point].

`O=[N+]([O-])c1cc(S(=O)(=O)NCCN2CCOCC2)ccc1Cl`: the AC50 under setting [1] is 10 µM [falling, single point].

With `CC1CCN(S(=O)(=O)c2ccc(C(=O)N3CCN(c4ccccc4F)CC3)cc2)CC1`, under setting [1], the AC50 is 28.2 µM [falling, single point].

As to `Cn1nc(C(=O)OCc2ccc(F)cc2)c2ccccc2c1=O`, under setting [1], the AC50 is 11.2 µM [rising, partial curve, poor fit].

For the molecule `CCOC(=O)C1(CCOc2ccccc2)CCN(Cc2ccc(OC)c(O)c2)CC1`, under setting [1], the AC50 is 11.2 µM [falling, partial curve, poor fit].

For the molecule `Cc1ccccc1CNc1ccc(C(CC(N)=O)NC(=O)c2ccccc2)cc1[N+](=O)[O-]` (stereo unspecified), under setting [1], the AC50 is 35.5 µM [falling, single point].

In the case of `CCOc1c(C)cc(-c2ncccc2O)cc1C`, under setting [1], the AC50 is 461 nM [rising, full curve, poor fit] and 11.2 µM [rising, partial curve].

With `Cc1cccnc1NC(=S)Nc1ncccc1C`, under setting [1], the AC50 was 3.16 µM [rising, partial curve, poor fit].

On to `Oc1ccc(-c2cn3ccccc3n2)cc1O`, for which, under setting [1], the AC50 is 6.31 µM [rising, single point].

Consider `COC(=O)c1ccccc1NC(=O)CSc1nncn1-c1cccnc1`, for which the AC50 under setting [1] is 35.5 µM [falling, single point].

`Cc1ccc(OCCCn2cc(C#N)c3ccccc32)cc1`: the AC50 under setting [1] was 32.6 µM [rising, single point].

With `COc1ccc(C(=O)NCC(=O)OCCOc2ccc(Cl)cc2)cc1OC`, the AC50 under setting [1] is 4.61 µM [rising, partial curve, poor fit].

On to `COc1ccc(OC)c(NC(=O)NCCc2c[nH]c3ccccc23)c1`, for which, under setting [1], the AC50 was 11.2 µM [falling, partial curve].

With `O=C(O)Cn1cc(/C=C2/NC(=O)N(c3ccc(Cl)cc3)C2=O)c2ccccc21`, under setting [1], the AC50 was 12.6 µM [falling, single point].

On to `C/C(=N/NC(=O)c1cccc(C)c1)c1c(O)cc(C)oc1=O`, for which the half-maximal activity concentration (AC50) under setting [1] is 9.2 µM [falling, partial curve].

`O=C(Nc1cccc(C(F)(F)F)c1)c1cnccn1`: under setting [1], the AC50 is 35.5 µM [rising, single point].

In the case of `CCN(CC)S(=O)(=O)c1ccc(N2CCOCC2)c(NC(=O)c2ccc3c(c2)OCCO3)c1`, the AC50 under setting [1] is 2.91 µM [rising, full curve, poor fit].

Turning to `COc1ccc(CCNC(=O)C2CCC(CNS(=O)(=O)c3ccc(C)cc3)CC2)cc1OC` (stereo unspecified), the concentration at half-maximal activity (AC50) under setting [1] was 3.98 µM [rising, partial curve, poor fit].

In the case of `Cc1cccc2c(=O)c(C(=O)N3CCCCCC3)c[nH]c12`, under setting [1], the AC50 was 3.55 µM [rising, single point].

On to `CS(=O)(=O)C1=NSC2=NC(=O)/C(=C\c3ccc(-c4ccccc4)o3)C(=N)N21`, for which the AC50 under setting [1] is 14.6 µM [falling, partial curve].

As to `COc1ccc(N=C(C)C2=C(O)c3ccccc3C2=O)cc1`, the AC50 under setting [1] was 0.206 µM [rising, full curve, poor fit].

With `CC(C)CCn1cnc2c(NCc3ccccc3)ncnc21`, the AC50 under setting [1] is 29.1 µM [falling, single point].

Consider `COc1ccc(CCN(C(=O)c2ccco2)C(C(=O)NC2CCCC2)c2ccncc2)cc1OC` (stereo unspecified), for which, under setting [1], the AC50 was 35.5 µM [falling, single point].

With `CC(C)c1ccc2oc(-c3ccc(NC(=O)c4ncn[nH]4)cc3)nc2c1`, the AC50 under setting [1] was 1.03 µM [falling, full curve, poor fit].

Turning to `CCOc1ccc(C(=O)N2CCN(Cc3ccccc3)CC2)cc1`, the AC50 under setting [1] was 17.8 µM [falling, partial curve, poor fit].

As for `COc1cc(CNCCCN2CCOCC2)c(Br)cc1OCC(=O)Nc1ccccc1C`, the AC50 under setting [1] is 15.8 µM [falling, single point].
